In patent US20250109210A1 (ABSCI, published 2025):
Substitutions are numbered along the chain they refer to. Results are given in words; binding and its absence hold for the method and conditions named. Some entries that bind do so weakly or less than the wild type.

By UniProt entry, the sequences of proteins in these tests, tags left out. Where a name states a change or a piece, a line headed by the entry shows the natural chain unless it says otherwise. Chains listed by the source or under a name are the forms on record and can include a tag or linker.
Cyno TL1A (G7PRK8, form named): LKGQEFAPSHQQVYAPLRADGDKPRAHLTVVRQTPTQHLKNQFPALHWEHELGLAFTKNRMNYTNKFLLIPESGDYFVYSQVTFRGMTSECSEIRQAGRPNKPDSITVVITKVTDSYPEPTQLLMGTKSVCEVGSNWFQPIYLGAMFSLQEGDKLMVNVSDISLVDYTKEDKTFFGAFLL

T1: TL1A on HEK293 cells overexpressing TL1A (UniProt O95150)
T1 sequence (looked up): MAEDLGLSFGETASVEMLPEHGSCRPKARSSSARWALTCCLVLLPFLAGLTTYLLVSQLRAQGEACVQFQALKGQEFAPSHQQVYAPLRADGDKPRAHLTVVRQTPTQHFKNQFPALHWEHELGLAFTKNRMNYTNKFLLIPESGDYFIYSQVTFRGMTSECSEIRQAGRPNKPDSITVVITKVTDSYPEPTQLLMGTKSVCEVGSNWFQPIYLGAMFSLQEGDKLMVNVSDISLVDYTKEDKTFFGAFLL

B1: Antibody 8 of Sequence Table 1, Fab format (Fab, V domains shown)
VH: QVQLQESGPGLVRPSQTLSLTCTVSGFDMQSTYMHWVRQRPGRGLEWMGRIEPAGGHTKYNPSLKSRVTITRDTSKNQVSLRLSSVTAADTAVYYCVRSGGLPDVWGQGSLVTVSS
VL: DIQMTQSPSSLSASVGDRVTITCRASSSVSYMYWYQQKPGKAPKLLIYGASNLASGVPSRFSGSGSGTDFTFTISSLQPEDIATYYCQQWEGNPRTFGQGTKVEIK
B2: Antibody 12 of Sequence Table 1, Fab format (Fab, V domains shown)
VH: B1 VH with M29I, Q30T, S31D
VL: B1 VL with S27Q, S28G, S30E, G49S
B3: Antibody 10 of Sequence Table 1, Fab format (Fab, V domains shown)
VH: B1 VH with F27L, M29P, Q30D, S31D, R98I
VL: B1 VL with S27Q, S28G, S30E
B4: Antibody 18 of Sequence Table 1, Fab format (Fab, V domains shown)
VH: B1 VH with Q30G, S31D, L102M
VL: B1 VL with G49Y
B5: Antibody 6 of Sequence Table 1, Fab format (Fab, V domains shown)
VH: B1 VH with Q30A, S31D, V105M
VL: B1 VL with S27Q, S28G, S30E, G49S
B6: Antibody 4 of Sequence Table 1, Fab format (Fab, V domains shown)
VH: B1 VH with Q30A, S31D, V105M
VL: B1 VL
B7: Antibody 20 of Sequence Table 1, Fab format (Fab, V domains shown)
VH: B1 VH with M29I, S31D, G55S, V97A, L102M, V105M
VL: B1 VL with S27Q, S28G, S30M
B8: Antibody 16 of Sequence Table 1, Fab format (Fab, V domains shown)
VH: B1 VH
VL: B1 VL with S27Q, S28G, S30E
B9: Antibody 11 of Sequence Table 1, Fab format (Fab, V domains shown)
VH: B1 VH with Q30G, S31D, L102M
VL: B1 VL with S27Q, S28G, S30E, G49S
B10: Antibody 7 of Sequence Table 1, Fab format (Fab, V domains shown)
VH: B1 VH with Q30G, S31D, G55A, V105I
VL: B1 VL with S27Q, S28G, S30E
B11: Antibody 5 of Sequence Table 1, Fab format (Fab, V domains shown)
VH: B1 VH with S31D, G55S
VL: B1 VL with S27Q, S28G, S30M
B12: Antibody 15 of Sequence Table 1, Fab format (Fab, V domains shown)
VH: B1 VH with M29I, S31D, V105A
VL: B1 VL with S27Q, S28G, V29I, S30Y
B13: Antibody 9 of Sequence Table 1, Fab format (Fab, V domains shown)
VH: B1 VH with M29I, S31D, V105A
VL: B1 VL with S27Q, S28G, S30G, G49S
B14: Antibody 1 of Sequence Table 1, Fab format (Fab, V domains shown)
VH: B1 VH with M29I, S31D, V97A, R98S, L102M, V105L
VL: B1 VL with S27Q, S28G, S30E
B15: Antibody 19 of Sequence Table 1, Fab format (Fab, V domains shown)
VH: B1 VH with M29I, Q30T, S31D
VL: B1 VL with S27Q, S28G, S30E, G49Y
B16: Antibody 2 of Sequence Table 1, Fab format (Fab, V domains shown)
VH: B1 VH with F27L, M29P, Q30D, S31D, R98I
VL: B1 VL with G49A, A50T
B17: Antibody 13 of Sequence Table 1, Fab format (Fab, V domains shown)
VH: B1 VH with M29Y, S31D, E52D, G55S, V97A, R98V, L102M
VL: B1 VL with S27Q, S28G, S30E, G49A, A50T
B18: Antibody 3 of Sequence Table 1, Fab format (Fab, V domains shown)
VH: B1 VH with M29I, S31D, V105A
VL: B1 VL with S27Q, S28G, S30R
B19: Antibody 17 of Sequence Table 1, Fab format (Fab, V domains shown)
VH: B1 VH with Q30G, S31D, G55A
VL: B1 VL with S27Q, S28G, S30E
B20: Antibody 9 of Sequence Table 1, mAb format (antibody, human IgG1, kappa, N297A, V domains shown)
VH: B1 VH with M29I, S31D, V105A
VL: DIQMTQSPSSLSASVGDRVTITCRASQGVGYMYWYQQKPGKAPKLLIYSASNLASGVPSRFSGSGSGTDFTFTISSLQPEDIATYYCQQWEGNPRTFGQGTKVEIKR
B21: Antibody 15 of Sequence Table 1, mAb format (antibody, human IgG1, kappa, N297A, V domains shown)
VH: B1 VH with M29I, S31D, V105A
VL: B20 VL with V29I, G30Y, S49G
B22: Antibody 19 of Sequence Table 1, mAb format (antibody, human IgG1, kappa, N297A, V domains shown)
VH: B1 VH with M29I, Q30T, S31D
VL: B20 VL with G30E, S49Y
B23: Antibody 17 of Sequence Table 1, mAb format (antibody, human IgG1, kappa, N297A, V domains shown)
VH: B1 VH with Q30G, S31D, G55A
VL: B20 VL with G30E, S49G
B24: Antibody 13 of Sequence Table 1, mAb format (antibody, human IgG1, kappa, N297A, V domains shown)
VH: B1 VH with M29Y, S31D, E52D, G55S, V97A, R98V, L102M
VL: B20 VL with G30E, S49A, A50T
B25: Antibody 10 of Sequence Table 1, mAb format (antibody, human IgG1, kappa, N297A, V domains shown)
VH: B1 VH with F27L, M29P, Q30D, S31D, R98I
VL: B20 VL with G30E, S49G
B26: Antibody 11 of Sequence Table 1, mAb format (antibody, human IgG1, kappa, N297A, V domains shown)
VH: B1 VH with Q30G, S31D, L102M
VL: B20 VL with G30E
B27: Antibody 20 of Sequence Table 1, mAb format (antibody, human IgG1, kappa, N297A, V domains shown)
VH: B1 VH with M29I, S31D, G55S, V97A, L102M, V105M
VL: B20 VL with G30M, S49G
B28: Antibody 18 of Sequence Table 1, mAb format (antibody, human IgG1, kappa, N297A, V domains shown)
VH: B1 VH with Q30G, S31D, L102M
VL: B20 VL with Q27S, G28S, G30S, S49Y
B29: Antibody 12 of Sequence Table 1, mAb format (antibody, human IgG1, kappa, N297A, V domains shown)
VH: B1 VH with M29I, Q30T, S31D
VL: B20 VL with G30E
B30: Antibody 16 of Sequence Table 1, mAb format (antibody, human IgG1, kappa, N297A, V domains shown)
VH: B1 VH
VL: B20 VL with G30E, S49G

target: Cyno TL1A (cyno) (UniProt G7PRK8); assay: SPR

binding | Binder
binds | B1
binds | B2
binds | B3
binds | B4
binds | B5
binds | B6
binds | B7
binds | B8
binds | B9
binds | B10
binds | B11
binds | B12
binds | B13
binds | B14
binds | B15
binds | B16
binds | B17
binds | B18
binds | B19

target: Cyno TL1A (cyno) (UniProt G7PRK8); assay: SPR, Fab format

binding | Binder
binds | B1
binds | B2
binds | B3
binds | B4
binds | B5
binds | B6
binds | B7
binds | B8
binds | B9
binds | B10
binds | B11
binds | B12
binds | B13
binds | B14
binds | B15
binds | B16
binds | B17
binds | B18
binds | B19

target: Human TL1A (human) (UniProt O95150); assay: SPR, Fab format

binding | Binder
binds | B1
binds | B2
binds | B3
binds | B4
binds | B5
binds | B6
binds | B7
binds | B8
binds | B9
binds | B10
binds | B11
binds | B12
binds | B13
binds | B15
binds | B16
binds | B17
binds | B18
binds | B19

target: Cyno TL1A (cyno) (UniProt G7PRK8); assay: SPR, mAb format

binding | Binder
binds | B20
binds | B21
binds | B22
binds | B23
binds | B24
binds | B25
binds | B26
binds | B27
binds | B28
binds | B29
binds | B30

target: T1, TL1A on HEK293 cells overexpressing TL1A; assay: flow cytometry, HEK293 cells overexpressing TL1A

binding | Binder
binds | B20
binds | B21
binds | B22
binds | B23
binds | B24
binds | B25
binds | B26
binds | B27
binds | B28
binds | B29
binds | B30
